This is an account of results in publication PMC3486646.

By UniProt entry, the sequences of proteins in these tests, tags left out. Residues count along the entry.
UniProt O95793, residues 82-577: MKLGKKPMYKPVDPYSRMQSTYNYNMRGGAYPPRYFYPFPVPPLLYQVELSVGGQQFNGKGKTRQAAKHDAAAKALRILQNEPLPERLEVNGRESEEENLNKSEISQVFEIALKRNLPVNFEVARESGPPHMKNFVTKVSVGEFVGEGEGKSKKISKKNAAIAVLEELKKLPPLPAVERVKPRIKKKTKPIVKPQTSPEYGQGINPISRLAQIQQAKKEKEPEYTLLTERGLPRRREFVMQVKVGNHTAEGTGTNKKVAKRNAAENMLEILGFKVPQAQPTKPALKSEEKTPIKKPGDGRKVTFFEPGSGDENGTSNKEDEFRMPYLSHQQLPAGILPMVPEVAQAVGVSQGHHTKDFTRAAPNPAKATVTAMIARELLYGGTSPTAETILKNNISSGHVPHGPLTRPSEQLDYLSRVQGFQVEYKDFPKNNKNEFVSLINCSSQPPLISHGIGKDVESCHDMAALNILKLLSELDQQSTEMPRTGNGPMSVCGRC

These are yes or no findings as the source states them, for the method shown. In cells and extracts the contact can be indirect. These calls come from enrichment with a bait or labelling near it, and not all partners need be listed.

The labels stand for the following.
B1: Cleavage and polyadenylation specificity factor subunit 1 (protein, UniProt Q10570 1-1443)
chain: MYAVYKQAHPPTGLEFSMYCNFFNNSERNLVVAGTSQLYVYRLNRDAEALTKNDRSTEGKAHREKLELAASFSFFGNVMSMASVQLAGAKRDALLLSFKDAKLSVVEYDPGTHDLKTLSLHYFEEPELRDGFVQNVHTPRVRVDPDGRCAAMLVYGTRLVVLPFRRESLAEEHEGLVGEGQRSSFLPSYIIDVRALDEKLLNIIDLQFLHGYYEPTLLILFEPNQTWPGRVAVRQDTCSIVAISLNITQKVHPVIWSLTSLPFDCTQALAVPKPIGGVVVFAVNSLLYLNQSVPPYGVALNSLTTGTTAFPLRTQEGVRITLDCAQATFISYDKMVISLKGGEIYVLTLITDGMRSVRAFHFDKAAASVLTTSMVTMEPGYLFLGSRLGNSLLLKYTEKLQEPPASAVREAADKEEPPSKKKRVDATAGWSAAGKSVPQDEVDEIEVYGSEAQSGTQLATYSFEVCDSILNIGPCANAAVGEPAFLSEEFQNSPEPDLEIVVCSGHGKNGALSVLQKSIRPQVVTTFELPGCYDMWTVIAPVRKEEEDNPKGEGTEQEPSTTPEADDDGRRHGFLILSREDSTMILQTGQEIMELDTSGFATQGPTVFAGNIGDNRYIVQVSPLGIRLLEGVNQLHFIPVDLGAPIVQCAVADPYVVIMSAEGHVTMFLLKSDSYGGRHHRLALHKPPLHHQSKVITLCLYRDLSGMFTTESRLGGARDELGGRSGPEAEGLGSETSPTVDDEEEMLYGDSGSLFSPSKEEARRSSQPPADRDPAPFRAEPTHWCLLVRENGTMEIYQLPDWRLVFLVKNFPVGQRVLVDSSFGQPTTQGEARREEATRQGELPLVKEVLLVALGSRQSRPYLLVHVDQELLIYEAFPHDSQLGQGNLKVRFKKVPHNINFREKKPKPSKKKAEGGGAEEGAGARGRVARFRYFEDIYGYSGVFICGPSPHWLLVTGRGALRLHPMAIDGPVDSFAPFHNVNCPRGFLYFNRQGELRISVLPAYLSYDAPWPVRKIPLRCTAHYVAYHVESKVYAVATSTNTPCARIPRMTGEEKEFETIERDERYIHPQQEAFSIQLISPVSWEAIPNARIELQEWEHVTCMKTVSLRSEETVSGLKGYVAAGTCLMQGEEVTCRGRILIMDVIEVVPEPGQPLTKNKFKVLYEKEQKGPVTALCHCNGHLVSAIGQKIFLWSLRASELTGMAFIDTQLYIHQMISVKNFILAADVMKSISLLRYQEESKTLSLVSRDAKPLEVYSVDFMVDNAQLGFLVSDRDRNLMVYMYLPEAKESFGGMRLLRRADFHVGAHVNTFWRTPCRGATEGLSKKSVVWENKHITWFATLDGGIGLLLPMQEKTYRRLLMLQNALTTMLPHHAGLNPRAFRMLHVDRRTLQNAVRNVLDGELLNRYLYLSTMERSELAKKIGTTPDIILDDLLETDRVTAHF
B2: Alpha-internexin (protein, UniProt Q16352 1-499)
chain: MSFGSEHYLCSSSSYRKVFGDGSRLSARLSGAGGAGGFRSQSLSRSNVASSAACSSASSLGLGLAYRRPPASDGLDLSQAAARTNEYKIIRTNEKEQLQGLNDRFAVFIEKVHQLETQNRALEAELAALRQRHAEPSRVGELFQRELRDLRAQLEEASSARSQALLERDGLAEEVQRLRARCEEESRGREGAERALKAQQRDVDGATLARLDLEKKVESLLDELAFVRQVHDEEVAELLATLQASSQAAAEVDVTVAKPDLTSALREIRAQYESLAAKNLQSAEEWYKSKFANLNEQAARSTEAIRASREEIHEYRRQLQARTIEIEGLRGANESLERQILELEERHSAEVAGYQDSIGQLENDLRNTKSEMARHLREYQDLLNVKMALDIEIAAYRKLLEGEETRFSTSGLSISGLNPLPNPSYLLPPRILSATTSKVSSTGLSLKKEEEEEEASKVASKKTSQIGESFEEILEETVISTKKTEKSNIEETTISSQKI
B3: Cleavage and polyadenylation specificity factor subunit 7 (protein, UniProt Q8N684 1-471)
chain: MSEGVDLIDIYADEEFNQDPEFNNTDQIDLYDDVLTATSQPSDDRSSSTEPPPPVRQEPSPKPNNKTPAILYTYSGLRNRRAAVYVGSFSWWTTDQQLIQVIRSIGVYDVVELKFAENRANGQSKGYAEVVVASENSVHKLLELLPGKVLNGEKVDVRPATRQNLSQFEAQARKRECVRVPRGGIPPRAHSRDSSDSADGRATPSENLVPSSARVDKPPSVLPYFNRPPSALPLMGLPPPPIPPPPPLSSSFGVPPPPPGIHYQHLMPPPPRLPPHLAVPPPGAIPPALHLNPAFFPPPNATVGPPPDTYMKASAPYNHHGSRDSGPPPSTVSEAEFEDIMKRNRAISSSAISKAVSGASAGDYSDAIETLLTAIAVIKQSRVANDERCRVLISSLKDCLHGIEAKSYSVGASGSSSRKRHRSRERSPSRSRESSRRHRDLLHNEDRHDDYFQERNREHERHRDRERDRHH
B4: Delta-1-pyrroline-5-carboxylate synthetase (protein, UniProt P54886 1-795)
chain: MLSQVYRCGFQPFNQHLLPWVKCTTVFRSHCIQPSVIRHVRSWSNIPFITVPLSRTHGKSFAHRSELKHAKRIVVKLGSAVVTRGDECGLALGRLASIVEQVSVLQNQGREMMLVTSGAVAFGKQRLRHEILLSQSVRQALHSGQNQLKEMAIPVLEARACAAAGQSGLMALYEAMFTQYSICAAQILVTNLDFHDEQKRRNLNGTLHELLRMNIVPIVNTNDAVVPPAEPNSDLQGVNVISVKDNDSLAARLAVEMKTDLLIVLSDVEGLFDSPPGSDDAKLIDIFYPGDQQSVTFGTKSRVGMGGMEAKVKAALWALQGGTSVVIANGTHPKVSGHVITDIVEGKKVGTFFSEVKPAGPTVEQQGEMARSGGRMLATLEPEQRAEIIHHLADLLTDQRDEILLANKKDLEEAEGRLAAPLLKRLSLSTSKLNSLAIGLRQIAASSQDSVGRVLRRTRIAKNLELEQVTVPIGVLLVIFESRPDCLPQVAALAIASGNGLLLKGGKEAAHSNRILHLLTQEALSIHGVKEAVQLVNTREEVEDLCRLDKMIDLIIPRGSSQLVRDIQKAAKGIPVMGHSEGICHMYVDSEASVDKVTRLVRDSKCEYPAACNALETLLIHRDLLRTPLFDQIIDMLRVEQVKIHAGPKFASYLTFSPSEVKSLRTEYGDLELCIEVVDNVQDAIDHIHKYGSSHTDVIVTEDENTAEFFLQHVDSACVFWNASTRFSDGYRFGLGAEVGISTSRIHARGPVGLEGLLTTKWLLRGKDHVVSDFSEHGSLKYLHENLPIPQRNTN
B5: AP-3 complex subunit delta-1 (protein, UniProt O14617 1-1153)
chain: MALKMVKGSIDRMFDKNLQDLVRGIRNHKEDEAKYISQCIDEIKQELKQDNIAVKANAVCKLTYLQMLGYDISWAAFNIIEVMSASKFTFKRIGYLAASQSFHEGTDVIMLTTNQIRKDLSSPSQYDTGVALTGLSCFVTPDLARDLANDIMTLMSHTKPYIRKKAVLIMYKVFLKYPESLRPAFPRLKEKLEDPDPGVQSAAVNVICELARRNPKNYLSLAPLFFKLMTSSTNNWVLIKIIKLFGALTPLEPRLGKKLIEPLTNLIHSTSAMSLLYECVNTVIAVLISLSSGMPNHSASIQLCVQKLRILIEDSDQNLKYLGLLAMSKILKTHPKSVQSHKDLILQCLDDKDESIRLRALDLLYGMVSKKNLMEIVKKLMTHVDKAEGTTYRDELLTKIIDICSQSNYQYITNFEWYISILVELTRLEGTRHGHLIAAQMLDVAIRVKAIRKFAVSQMSALLDSAHLLASSTQRNGICEVLYAAAWICGEFSEHLQEPHHTLEAMLRPRVTTLPGHIQAVYVQNVVKLYASILQQKEQAGEAEGAQAVTQLMVDRLPQFVQSADLEVQERASCILQLVKHIQKLQAKDVPVAEEVSALFAGELNPVAPKAQKKVPVPEGLDLDAWINEPLSDSESEDERPRAVFHEEEQRRPKHRPSEADEEELARRREARKQEQANNPFYIKSSPSPQKRYQDTPGVEHIPVVQIDLSVPLKVPGLPMSDQYVKLEEERRHRQKLEKDKRRKKRKEKEKKGKRRHSSLPTESDEDIAPAQQVDIVTEEMPENALPSDEDDKDPNDPYRALDIDLDKPLADSEKLPIQKHRNTETSKSPEKDVPMVEKKSKKPKKKEKKHKEKERDKEKKKEKEKKKSPKPKKKKHRKEKEERTKGKKKSKKQPPGSEEAAGEPVQNGAPEEEQLPPESSYSLLAENSYVKMTCDIRGSLQEDSQVTVAIVLENRSSSILKGMELSVLDSLNARMARPQGSSVHDGVPVPFQLPPGVSNEAQYVFTIQSIVMAQKLKGTLSFIAKNDEGATHEKLDFRLHFSCSSYLITTPCYSDAFAKLLESGDLSMSSIKVDGIRMSFQNLLAKICFHHHFSVVERVDSCASMYSRSIQGHHVCLLVKKGENSVSVDGKCSDSTLLSNLLEEMKATLAKC
B6: CDP-diacylglycerol–inositol 3-phosphatidyltransferase (protein, UniProt O14735 1-213)
chain: MPDENIFLFVPNLIGYARIVFAIISFYFMPCCPLTASSFYLLSGLLDAFDGHAARALNQGTRFGAMLDMLTDRCSTMCLLVNLALLYPGATLFFQISMSLDVASHWLHLHSSVVRGSESHKMIDLSGNPVLRIYYTSRPALFTLCAGNELFYCLLYLFHFSEGPLVGSVGLFRMGLWVTAPIALLKSLISVIHLITAARNMAALDAADRAKKK
B7: Double-stranded RNA-specific adenosine deaminase (protein, UniProt P55265 1-1226)
chain: MNPRQGYSLSGYYTHPFQGYEHRQLRYQQPGPGSSPSSFLLKQIEFLKGQLPEAPVIGKQTPSLPPSLPGLRPRFPVLLASSTRGRQVDIRGVPRGVHLRSQGLQRGFQHPSPRGRSLPQRGVDCLSSHFQELSIYQDQEQRILKFLEELGEGKATTAHDLSGKLGTPKKEINRVLYSLAKKGKLQKEAGTPPLWKIAVSTQAWNQHSGVVRPDGHSQGAPNSDPSLEPEDRNSTSVSEDLLEPFIAVSAQAWNQHSGVVRPDSHSQGSPNSDPGLEPEDSNSTSALEDPLEFLDMAEIKEKICDYLFNVSDSSALNLAKNIGLTKARDINAVLIDMERQGDVYRQGTTPPIWHLTDKKRERMQIKRNTNSVPETAPAAIPETKRNAEFLTCNIPTSNASNNMVTTEKVENGQEPVIKLENRQEARPEPARLKPPVHYNGPSKAGYVDFENGQWATDDIPDDLNSIRAAPGEFRAIMEMPSFYSHGLPRCSPYKKLTECQLKNPISGLLEYAQFASQTCEFNMIEQSGPPHEPRFKFQVVINGREFPPAEAGSKKVAKQDAAMKAMTILLEEAKAKDSGKSEESSHYSTEKESEKTAESQTPTPSATSFFSGKSPVTTLLECMHKLGNSCEFRLLSKEGPAHEPKFQYCVAVGAQTFPSVSAPSKKVAKQMAAEEAMKALHGEATNSMASDNQPEGMISESLDNLESMMPNKVRKIGELVRYLNTNPVGGLLEYARSHGFAAEFKLVDQSGPPHEPKFVYQAKVGGRWFPAVCAHSKKQGKQEAADAALRVLIGENEKAERMGFTEVTPVTGASLRRTMLLLSRSPEAQPKTLPLTGSTFHDQIAMLSHRCFNTLTNSFQPSLLGRKILAAIIMKKDSEDMGVVVSLGTGNRCVKGDSLSLKGETVNDCHAEIISRRGFIRFLYSELMKYNSQTAKDSIFEPAKGGEKLQIKKTVSFHLYISTAPCGDGALFDKSCSDRAMESTESRHYPVFENPKQGKLRTKVENGEGTIPVESSDIVPTWDGIRLGERLRTMSCSDKILRWNVLGLQGALLTHFLQPIYLKSVTLGYLFSQGHLTRAICCRVTRDGSAFEDGLRHPFIVNHPKVGRVSIYDSKRQSGKTKETSVNWCLADGYDLEILDGTRGTVDGPRNELSRVSKKNIFLLFKKLCSFRYRRDLLRLSYGEAKKAARDYETAKNYFKKGLKDMGYGNWISKPQEEKNFYLCPV

The assay concerns the target Staufen1-TAP (UniProt O95793). In words: affinity purification with mass spectrometry; tandem affinity purification of Staufen1-TAP from lysates of stable 293T cells, mock or pNL4-3 transfected; eluates on SDS-PAGE, 23 gel slices, in gel trypsin digestion, LC-MS/MS; FDR less than 1%.
With B1, the binding result was “binds”. In the case of B2 it was “binds”; in that of B3, “binds”; in that of B4, “binds”. On to B5, for which the binding entry was “binds”. In the case of B6 it was “binds”; in that of B7, “binds”.
